In paper PMC8396027:
These are yes or no findings as the source states them, for the method shown. Some results given as binding are weak or reduced against the parent protein; the word gives no strength.

The chains behind the UniProt entries cited, without tags or fusion partners. Residues count along the entry.
UniProt P08195, residues 102-630: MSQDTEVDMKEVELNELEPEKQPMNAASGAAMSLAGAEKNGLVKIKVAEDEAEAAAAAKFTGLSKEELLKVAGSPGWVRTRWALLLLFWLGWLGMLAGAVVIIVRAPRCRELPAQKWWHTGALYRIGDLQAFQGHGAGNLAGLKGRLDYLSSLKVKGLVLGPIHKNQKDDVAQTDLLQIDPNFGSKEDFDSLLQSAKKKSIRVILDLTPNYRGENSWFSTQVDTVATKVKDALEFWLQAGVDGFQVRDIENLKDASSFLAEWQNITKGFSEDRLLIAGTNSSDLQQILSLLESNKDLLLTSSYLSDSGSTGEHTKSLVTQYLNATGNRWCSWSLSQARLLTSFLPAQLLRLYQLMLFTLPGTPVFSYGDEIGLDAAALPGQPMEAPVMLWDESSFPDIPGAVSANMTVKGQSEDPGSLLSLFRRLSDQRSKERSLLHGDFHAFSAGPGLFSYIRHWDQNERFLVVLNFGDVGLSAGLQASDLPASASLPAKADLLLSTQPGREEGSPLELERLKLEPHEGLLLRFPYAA
UniProt Q01650: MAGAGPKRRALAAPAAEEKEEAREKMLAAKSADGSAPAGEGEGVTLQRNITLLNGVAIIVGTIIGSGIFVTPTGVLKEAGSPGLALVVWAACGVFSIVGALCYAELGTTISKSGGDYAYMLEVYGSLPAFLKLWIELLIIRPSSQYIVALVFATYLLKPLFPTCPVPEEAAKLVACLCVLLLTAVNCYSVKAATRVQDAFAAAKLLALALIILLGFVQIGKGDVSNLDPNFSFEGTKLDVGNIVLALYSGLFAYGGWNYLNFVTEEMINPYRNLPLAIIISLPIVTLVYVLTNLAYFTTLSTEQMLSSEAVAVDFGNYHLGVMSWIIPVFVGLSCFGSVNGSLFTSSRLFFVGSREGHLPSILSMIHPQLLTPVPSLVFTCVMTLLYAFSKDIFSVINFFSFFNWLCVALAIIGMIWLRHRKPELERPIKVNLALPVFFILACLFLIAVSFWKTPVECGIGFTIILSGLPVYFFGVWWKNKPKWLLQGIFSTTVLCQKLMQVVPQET

Assays:
[1] = molecular target: human 4F2hc (SLC3A2), heavy subunit of the heterodimeric amino acid transporter 4F2hc-LAT1 (human) (UniProt P08195); experiment: negative-stain transmission electron microscopy; double affinity and SEC-purified 4F2hc-LAT1 in GDN at 50 µg/mL on carbon-coated grids, 0.75% uranyl formate; both purified
[2] = molecular target: human 4F2hc (SLC3A2), heavy subunit of the heterodimeric amino acid transporter 4F2hc-LAT1 (human) (UniProt P08195); experiment: double affinity co-purification (Ni-NTA, then Strep-Tactin); membranes of P. pastoris co-expressing both subunits solubilised in LMNG/CHS; first Ni-NTA by the His-tag of 4F2hc (exchange to GDN), then Strep-Tactin XT by the Strep-tag of LAT1; 100 mM BTP-HCl pH 8.0, 150-300 mM NaCl, 4 °C
[3] = molecular target: human 4F2hc (SLC3A2), heavy subunit of the heterodimeric amino acid transporter 4F2hc-LAT1 (human) (UniProt P08195); experiment: non-reducing SDS-PAGE with Coomassie staining and Western blot; double affinity purified 4F2hc-LAT1 on 10% SDS-PAGE, non-reducing against reducing (DTT) conditions; blots with anti-His-tag and anti-Strep-tag antibodies; disulfide-linked heterodimer; both purified
[4] = molecular target: human 4F2hc (SLC3A2), heavy subunit of the heterodimeric amino acid transporter 4F2hc-LAT1 (human) (UniProt P08195); experiment: SEC; double affinity purified 4F2hc-LAT1, about 1 mg/mL, Superose 6 3.2/300, 20 mM BTP-HCl pH 8.0, 150 mM NaCl, 2% glycerol, 0.05% GDN; both purified

Measured: binding

human L-type amino acid transporter LAT1 (SLC7A5), light subunit of the heterodimeric amino acid transporter 4F2hc-LAT1 (from UniProt Q01650 1-507)
binds: all assays above
